# Results are given in words; binding and its absence hold for the method and conditions named. Binding seen in cells or lysates may run through a third protein.
# By UniProt entry, the sequences of proteins in these tests, tags left out. Where a name states a change or a piece, a line headed by the entry shows the natural chain unless it says otherwise.
# UniProt Q96AC1: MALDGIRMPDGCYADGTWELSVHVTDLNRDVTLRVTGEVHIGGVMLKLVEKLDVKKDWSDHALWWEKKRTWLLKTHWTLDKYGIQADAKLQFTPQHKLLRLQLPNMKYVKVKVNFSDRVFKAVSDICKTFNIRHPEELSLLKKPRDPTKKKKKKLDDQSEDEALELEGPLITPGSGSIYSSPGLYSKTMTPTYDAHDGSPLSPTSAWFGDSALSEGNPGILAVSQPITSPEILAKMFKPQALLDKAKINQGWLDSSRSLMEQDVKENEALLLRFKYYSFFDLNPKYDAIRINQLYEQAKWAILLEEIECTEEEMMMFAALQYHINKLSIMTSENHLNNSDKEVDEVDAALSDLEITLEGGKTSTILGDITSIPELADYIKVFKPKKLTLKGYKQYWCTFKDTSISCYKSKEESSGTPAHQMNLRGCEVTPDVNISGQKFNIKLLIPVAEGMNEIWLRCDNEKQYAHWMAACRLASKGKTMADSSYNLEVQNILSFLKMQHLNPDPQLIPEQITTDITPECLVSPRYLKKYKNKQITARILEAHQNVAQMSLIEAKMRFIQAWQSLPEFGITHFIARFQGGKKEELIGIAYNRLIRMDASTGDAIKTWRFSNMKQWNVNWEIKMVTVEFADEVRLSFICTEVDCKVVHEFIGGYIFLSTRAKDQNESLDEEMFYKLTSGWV
# UniProt Q62167: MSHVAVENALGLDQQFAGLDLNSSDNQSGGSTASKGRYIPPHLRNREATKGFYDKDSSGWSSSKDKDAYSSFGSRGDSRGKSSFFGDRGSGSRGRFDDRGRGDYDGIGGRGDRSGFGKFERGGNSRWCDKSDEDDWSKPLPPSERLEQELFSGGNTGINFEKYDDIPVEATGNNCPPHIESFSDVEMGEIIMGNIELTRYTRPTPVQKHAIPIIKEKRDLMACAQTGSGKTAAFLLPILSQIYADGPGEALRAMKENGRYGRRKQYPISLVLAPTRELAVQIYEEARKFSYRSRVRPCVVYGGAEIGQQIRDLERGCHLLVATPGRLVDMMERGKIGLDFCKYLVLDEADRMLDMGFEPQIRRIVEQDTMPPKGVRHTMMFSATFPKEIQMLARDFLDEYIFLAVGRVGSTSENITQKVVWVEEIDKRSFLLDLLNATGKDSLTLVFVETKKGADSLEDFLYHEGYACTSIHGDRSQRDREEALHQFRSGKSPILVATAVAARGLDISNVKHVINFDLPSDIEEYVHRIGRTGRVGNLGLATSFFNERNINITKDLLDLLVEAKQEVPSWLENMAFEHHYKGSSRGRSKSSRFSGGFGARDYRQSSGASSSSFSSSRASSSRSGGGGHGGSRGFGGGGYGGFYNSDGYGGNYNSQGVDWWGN
# Target: F1 deletion mutant of Kindlin-2 (lentiviral, pLVX-K2ΔF1-Hyg) (UniProt Q96AC1)
# Experiment: co-IP; lysates of primary PCCs from KPC;K2 WT or KPC;K2 cKO mice infected with lentivirus encoding K2 WT, K2 ΔF1 or empty vector; anti-Kindlin-2 antibody; immunoblot
substance,measurement,value
"DDX3X (endogenous, mouse primary pancreatic cancer cells) (from UniProt Q62167 1-662)",binding,no binding
